Measured values published in US12011432B2, “Method of modulating ribonucleotide reductase” (CASE WESTERN RESERVE UNIVERSITY, priority 2018, dated 2024).
Some entries share one result that the patent states for a list of compounds.

Test system: Human pancreatic cancer cells (Pancl)
Assay: Cancer cell line growth inhibition assay (DNA content)
Assay type: cell-based
Conditions: TP2 and 3 compared with TP5 and 6, respectively
Protocol: Growth inhibition assays were performed in the Translational Research Shared Resource of the Case Comprehensive Cancer Centre. Human pancreatic cancer cells (Pancl) were maintained in standard growth medium consisting of (RPMI1640+10% FBS+2 mM glutamine+100 U/mL penicillin, and […] streptomycin). Cells were monitored and shown to be negative for mycoplasma contamination using the Mycoplasma Detection kit (MycoAlert™, Lonza, Basel, Switzerland). For growth inhibition assays, cells were harvested by trypsinisation and seeded into 96-well tissue culture plates at 2500 cells/mL. The following day, triplicate wells were treated with an appropriate volume of 5x-inhibitor-containing medium. The cells were cultured for 3 additional days at 37° C. in a 5% CO2 humidified incubator. Cell growth was assessed by measuring total DNA content per well using an adaptation of the method of Labarca and Paigen.

Structure (SMILES)	decrease in potency in cells on removal of the methoxy [fold]
O=C(N/N=C/c1cc(-c2ccsc2)ccc1O)c1ccccc1O [TP3, (E)-2-Hydroxy-N′-(2-Hydroxy-5-(Thiophen-3-Yl)-Benzylidene)-Benzohydrazide]	> 2
O=C(N/N=C/c1cc(-c2ccccc2)ccc1O)c1ccccc1O [TP2]	> 2
